# In US11825838B2, “Tricyclic carboxamides for controlling arthropods” (Bayer CropScience Aktiengesellschaft, priority 2017, dated 2023):
# Some results were stated once for a whole list of compounds, not compound by compound. Some compounds share one range, which may span the group rather than tell each member.
# Test system: Anopheles gambiae strain RSPH (homozygot kdr)
# Assay: Anopheles test (ANPHGB surface treatment)
# Format: in vivo
# Conditions: application rate 100 mg/m^2, glazed tile, exposure 30 minutes, 24 hours after contact
# Experimental: Anopheles Test (ANPHGB Surface Treatment)
# (§1) Solvent: acetone+2000 ppm rapeseed oil methyl ester (RME)
# (§2) To produce a suitable active compound formulation, the active compound is dissolved in the solvent (2 mg/ml). The active compound formulation is pipetted onto a glazed tile and, after it has dried off, adult mosquitoes of the species Anopheles gambiae strain RSPH (homozygot kdr) are placed onto the treated tile. The exposure time is 30 minutes.
# (§3) 24 hours after contact with the treated surface, mortality in % is determined. 100% means that all mosquitoes have been killed; 0% means that none of the mosquitoes have been killed.
row,SMILES,efficacy (mortality)
1,N#CC1(NC(=O)c2cc(-c3cnn(-c4c(Cl)cc(C(F)(C(F)(F)F)C(F)(F)F)cc4Cl)c3)sc2Br)CC1 [I-T1-2],80-100%
2,O=C(NCc1ccccc1)c1cc(-c2cnn(-c3c(Cl)cc(C(F)(C(F)(F)F)C(F)(F)F)cc3Cl)c2)sc1Br [I-T1-6],80-100%
3,O=C(NC1CC1)c1csc(-c2cnn(-c3c(Cl)cc(C(F)(C(F)(F)F)C(F)(F)F)cc3Cl)c2)n1 [I-T1-8],80-100%
4,Cc1sc(-c2cnn(-c3c(Cl)cc(C(F)(C(F)(F)F)C(F)(F)F)cc3Cl)c2)cc1C(=O)NC1(C#N)CC1 [I-T1-10],80-100%
5,O=C(NC1CC1)c1cc(-c2cnn(-c3c(Cl)cc(C(F)(C(F)(F)F)C(F)(F)F)cc3Cl)c2)sc1I [I-T1-14],80-100%
6,N#CC1(NC(=O)c2cc(-c3cnn(-c4c(Cl)cc(C(F)(C(F)(F)F)C(F)(F)F)cc4Cl)c3)sc2I)CC1 [I-T1-15],80-100%

# Test system: Anopheles funestus strain FUMOZ-R
# Assay: Anopheles test (ANPHFU surface treatment)
# Format: in vivo
# Conditions: application rate 100 mg/m^2, glazed tile, exposure 30 minutes, 24 hours after contact
# Experimental: Anopheles Test (ANPHFU Surface Treatment)
# as §1
# as §2, with “funestus” for “gambiae”, “FUMOZ-R (Hunt et al., Med Vet Entomol. 2005 September; 19(3):271-5)” for “RSPH (homozygot kdr)”
# as §3
row,SMILES,efficacy (mortality)
1,N#CC1(NC(=O)c2cc(-c3cnn(-c4c(Cl)cc(C(F)(C(F)(F)F)C(F)(F)F)cc4Cl)c3)sc2Br)CC1 [I-T1-2],80-100%
2,Cc1sc(-c2cnn(-c3c(Cl)cc(C(F)(C(F)(F)F)C(F)(F)F)cc3Cl)c2)cc1C(=O)NC1(C#N)CC1 [I-T1-10],80-100%
3,O=C(NC1CC1)c1cc(-c2cnn(-c3c(Cl)cc(C(F)(C(F)(F)F)C(F)(F)F)cc3Cl)c2)sc1I [I-T1-14],80-100%
4,N#CC1(NC(=O)c2cc(-c3cnn(-c4c(Cl)cc(C(F)(C(F)(F)F)C(F)(F)F)cc4Cl)c3)sc2I)CC1 [I-T1-15],80-100%

# Test system: Aedes aegypti strain MONHEIM
# Assay: Aedes test (AEDSAE surface treatment)
# Format: in vivo
# Conditions: application rate 100 mg/m^2, glazed tile, exposure 30 minutes, 24 hours after contact
# Experimental: Aedes Test (AEDSAE Surface Treatment)
# as §1
# as §2, with “Aedes aegypti” for “Anopheles gambiae”, “MONHEIM” for “RSPH (homozygot kdr)”
# as §3
row,SMILES,efficacy (mortality)
1,N#CC1(NC(=O)c2cc(-c3cnn(-c4c(Cl)cc(C(F)(C(F)(F)F)C(F)(F)F)cc4Cl)c3)sc2Br)CC1 [I-T1-2],80-100%
2,Cc1sc(-c2cnn(-c3c(Cl)cc(C(F)(C(F)(F)F)C(F)(F)F)cc3Cl)c2)cc1C(=O)NC1(C#N)CC1 [I-T1-10],80-100%
3,O=C(NC1CC1)c1cc(-c2cnn(-c3c(Cl)cc(C(F)(C(F)(F)F)C(F)(F)F)cc3Cl)c2)sc1I [I-T1-14],80-100%
4,N#CC1(NC(=O)c2cc(-c3cnn(-c4c(Cl)cc(C(F)(C(F)(F)F)C(F)(F)F)cc4Cl)c3)sc2I)CC1 [I-T1-15],80-100%
